# “And” between values parts separate entries of the source, which are not always exact repeats. Equal values may be shown once. Hit rate of the full screen: of about 580,000 compounds, about 6,100 (1.1%) were called active. The inconclusive results got no clear call from the source; some entries with a clear call stand among them for comparison. The call rests on the fitted dose curve; in most records, active means well fitted inhibition curve with a large enough effect; inconclusive means small, poorly fitted or top-dose-only effect, or another doubt; inactive means no such curve, though single readings can be large or run the other way. Potencies of inconclusive entries are doubtful fits and often do not repeat.
# Chains of the proteins cited; added tags and fusions are not shown. Lines headed by an entry give the natural chain unless they say otherwise; changes in a name come on top.
# UniProt P18054: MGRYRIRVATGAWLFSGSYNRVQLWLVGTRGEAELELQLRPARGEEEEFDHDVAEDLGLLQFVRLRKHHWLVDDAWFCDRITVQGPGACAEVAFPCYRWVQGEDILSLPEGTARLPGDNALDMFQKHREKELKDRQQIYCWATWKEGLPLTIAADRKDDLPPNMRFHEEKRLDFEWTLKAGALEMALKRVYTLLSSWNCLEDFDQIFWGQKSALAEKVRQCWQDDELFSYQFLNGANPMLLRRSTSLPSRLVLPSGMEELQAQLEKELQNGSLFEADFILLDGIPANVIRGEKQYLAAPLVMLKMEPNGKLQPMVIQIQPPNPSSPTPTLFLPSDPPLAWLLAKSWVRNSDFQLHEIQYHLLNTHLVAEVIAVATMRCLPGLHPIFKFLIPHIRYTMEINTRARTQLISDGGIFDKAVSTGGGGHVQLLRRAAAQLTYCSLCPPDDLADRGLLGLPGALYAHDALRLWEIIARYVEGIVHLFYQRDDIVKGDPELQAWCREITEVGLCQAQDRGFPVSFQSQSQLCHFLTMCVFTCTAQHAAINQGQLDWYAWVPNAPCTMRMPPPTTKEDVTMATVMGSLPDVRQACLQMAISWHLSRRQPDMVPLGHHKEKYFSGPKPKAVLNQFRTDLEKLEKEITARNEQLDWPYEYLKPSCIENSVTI
# Target: Polyunsaturated fatty acid lipoxygenase ALOX12 (Homo sapiens) (UniProt P18054)
# Assay: Primary qHTS assay for inhibitors of human arachidonate 12S-lipoxygenase (ALOX12): Round 2
# Settings: purified 12hLO, xylenol orange hydroperoxide absorbance; series mostly up to 108 µM
# Procedure, shortened: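 Purified human 12hLO at 150 nM in 25 mM Hepes, 0.01% Triton X-100, pH 7.0, preincubated 15 min at room temperature with compound. Reaction started with 40 uM arachidonic acid, 30 min at room temperature. Hydroperoxide measured by Fe-xylenol orange, 573/405 nm absorbance ratio.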
# Potency means the concentration at half of the fitted maximal effect.
row,SMILES,Potency
1,COc1ccccc1OCC(=O)N1CCN(c2ccccc2OC)CC1,"inconclusive: 100 µM [inhibitor, partial curve, poor fit]"
2,O=S1(=O)N=C(N(CCO)/N=C/c2ccc(Cl)cc2)c2ccccc21,inactive
3,Cc1ccc(N(CC(=O)O)CC(=O)O)cc1,"inconclusive: 3.55 µM [inhibitor, full curve, poor fit]"
4,Cc1oc(-c2ccc(Cl)cc2)cc1C(=O)NC1CCN(Cc2ccccc2)CC1,inactive
5,CSCCC(NC(=O)c1ccco1)C(=O)NC1CCCCCC1 (stereo not drawn),"inconclusive: 39.8 µM [inhibitor, partial curve, poor fit]"
6,CCOC(=O)C1=C(O)C(=O)N(C2CCCCC2)C1,"inconclusive: 20 µM [inhibitor, partial curve, poor fit]"
7,CCN(Cc1ccccc1)C(c1cc2ccc(C)cc2[nH]c1=O)c1nnnn1CCOC (stereo not drawn),"inconclusive: 35.5 µM [inhibitor, partial curve]"
8,CC(C)CNC(=O)CSc1nc2scc(-c3ccccc3)c2c(=O)[nH]1,"inconclusive: 70.8 µM [inhibitor, partial curve, poor fit]"
9,Cc1ccc(NC(=O)CSc2ncc(-c3ccc(F)cc3)o2)cc1Cl,inactive
10,CCN(Cc1cc(=O)oc2c(C)c(O)ccc12)C1CC1,"inconclusive: 44.7 µM [inhibitor, partial curve, poor fit]"
11,CN(CC1COc2ccccc2O1)C(=O)c1cccc(S(=O)(=O)N2CCCC2)c1 (stereo not drawn),inactive
12,COc1cccc(OCC(O)CNC(=O)c2oc3c(C)c(C)ccc3c2C)c1 (stereo not drawn),"inconclusive: 126 µM [inhibitor, partial curve, poor fit]"
13,COC(=O)c1ccc([C@H]2Nc3ccc(S(=O)(=O)Nc4cccc(C)c4)cc3[C@H]3C=CC[C@H]32)cc1,"inconclusive: 50.1 µM [inhibitor, partial curve, poor fit]"
14,c1cc(-c2cc3cc4c(cc3cn2)OCO4)cs1,inactive
15,CC1CCCC(N2CCN(Cc3ccc(Cl)cc3)CC2)C1 (stereo not drawn),active: 0.794 µM
16,CCOC(=O)c1sc2c(c1C)C(c1cccs1)C1=C(CCCC1=O)N2 (stereo not drawn),inactive
17,COCCNC(=O)CCCn1c(SCc2ccccc2Cl)nc2c(sc3ccccc32)c1=O,"inconclusive: 112 µM [inhibitor, single point]"
18,COc1ccc(NC(=O)Cn2c(-c3ccccc3)cn(-c3ccc(C)cc3)c2=O)cc1,"inconclusive: 7.94 µM [inhibitor, full curve, poor fit]"
19,Cc1ccc(S(=O)(=O)N2C(c3ccc(Cl)c(Cl)c3)CC=C(C(=O)O)C2c2cccc(Cl)c2)cc1 (stereo not drawn),"inconclusive: 50.1 µM [inhibitor, partial curve, poor fit]"
20,COc1ccc(CCC(=O)OCC(=O)c2cccc(Br)c2)cc1OC,"inconclusive: 35.5 µM [inhibitor, single point]"
21,CCCCOc1ccc(C(=O)N(Cc2ccco2)Cc2ccco2)cc1,active: 17.8 µM
22,Fc1ccc(NC(=S)NCCC2=CCCCC2)cc1,"inconclusive: 56.2 µM [inhibitor, partial curve, poor fit]"

# Among those listed so far, these contain an aryl thioether with sulfur outside any ring.
row,SMILES,Potency
8,CC(C)CNC(=O)CSc1nc2scc(-c3ccccc3)c2c(=O)[nH]1,"inconclusive: 70.8 µM [inhibitor, partial curve, poor fit]"
9,Cc1ccc(NC(=O)CSc2ncc(-c3ccc(F)cc3)o2)cc1Cl,inactive
17,COCCNC(=O)CCCn1c(SCc2ccccc2Cl)nc2c(sc3ccccc32)c1=O,"inconclusive: 112 µM [inhibitor, single point]"

# (cont.)

row,SMILES,Potency
1,Cc1ccc(S(=O)(=O)N2CCOCC2)cc1NC(=O)CSc1ccccn1,inactive
2,CCOc1cc(C(=O)N[C@@H](C)C(=O)N2CCC3(CC2)NCCc2[nH]cnc23)cc(OCC)c1OCC,inactive
3,O=C(Nc1ccc(SC(F)F)cc1)c1ccccc1F,"inconclusive: 56.2 µM [inhibitor, partial curve, poor fit]"
4,CC(Cc1ccco1)NC(=O)c1ccc(C(F)(F)F)cc1 (stereo not drawn),"inconclusive: 100 µM [inhibitor, single point]"
5,CCCn1nc(C(=O)N(C)Cc2ccc(F)cc2)c2ccccc2c1=O,"inconclusive: 100 µM [inhibitor, single point]"
6,Cc1cccc(NC(=O)C2=C(O)c3ccccc3N(C)S2(=O)=O)c1,"inconclusive: 10 µM [inhibitor, partial curve, poor fit]"
7,Cc1[nH]n(-c2ccccc2)c(=O)c1/C=N/Nc1nncc(-c2ccccc2)n1,active: 15.8 µM
8,Cc1ccc(NC(=O)CSc2nc3nc(N4CCCCC4)sc3c(=O)n2C)cc1,"inconclusive: 56.2 µM [inhibitor, partial curve, poor fit]"
9,CC(C)CC(COCc1ccc([N+](=O)[O-])cc1)N1CCN(C(=O)c2ccc(C(F)(F)F)cc2)CCC1=O (stereo not drawn),inactive
10,O=C(Nc1nnc(-c2ccco2)s1)C1CCCCC1,inactive
11,O=c1[nH]c(SCc2cccc(Cl)c2)nc2c1CCC2,"inconclusive: 56.2 µM [inhibitor, partial curve, poor fit]"
12,Cc1cc(C(=O)NC(C)CCC(C)C)c2ccccc2n1 (stereo not drawn),"inconclusive: 4.47 µM [inhibitor, full curve, poor fit]"
13,Cc1cc(CN2CCN(c3ccc(F)cc3)CC2)cs1,"inconclusive: 141 µM [inhibitor, single point] and inconclusive: 28.2 µM [inhibitor, partial curve, poor fit]"
14,CCN1CCSc2ccc(C(=O)NCc3ccccc3Br)cc21,"inconclusive: 100 µM [inhibitor, partial curve, poor fit]"
15,COc1ccc(C(=O)NCc2cccc(C)c2)cc1,inactive
16,COCCCN1C(=O)C(O)=C(C(=O)c2ccco2)C1c1ccccc1 (stereo not drawn),"inconclusive: 20 µM [inhibitor, partial curve]"
17,CCn1c(COc2cccc3cccnc23)nnc1SCC(=O)OC,"inactive and inconclusive: 31.6 µM [inhibitor, single point]"
18,Cc1c(Cl)cccc1NC(=O)Cn1ccn2nc(-c3ccccc3)c(CO)c2c1=O,inactive
19,O=C(Nc1ccccc1C(=O)OCC(=O)N1CCc2ccccc2C1)c1ccco1,"inconclusive: 31.6 µM [inhibitor, single point]"
20,COC(=O)c1ccc(CSc2nc3ccc(S(N)(=O)=O)cc3[nH]2)cc1,inactive
21,CCOC(=O)C1CCCN(C(=O)CC(c2cccc([N+](=O)[O-])c2)c2c[nH]c3c(CC)cccc23)C1 (stereo not drawn),inactive

# Reference: PubChem BioAssay AID1671190 (National Center for Advancing Translational Sciences (NCATS), 2021)
